# Data reported in the supplement of paper PMC4604168 (melanoma cell lines).
# The other results are listed elsewhere or left out. Single values are uncertain, as repeats are few or missing.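 The apoptosis fraction was the count of cleaved-PARP antibody-stained nuclei relative to all DNA-stained nuclei, imaged in 1,536-well plates. Screening doses were set so most cells survived, and baseline and induced cleaved-PARP levels vary greatly across cell lines.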
# What was measured:
# Experiment in all cases: cleaved PARP positive nuclei fraction relative to DMSO control; melanoma cells; higher = more apoptosis
# Conditions in all cases: library dose: low library concentration; 72 h
# [1] = tested on: WM115
# [2] = tested on: WM1716
# [3] = tested on: WM1745
# [4] = tested on: WM3526
# [5] = tested on: WM3619
# [6] = tested on: WM451Lu
SMILES,cleaved PARP positive nuclei fraction [1],cleaved PARP positive nuclei fraction [2],cleaved PARP positive nuclei fraction [3],cleaved PARP positive nuclei fraction [4],cleaved PARP positive nuclei fraction [5],cleaved PARP positive nuclei fraction [6]
"OCc1c[nH]c2ccccc12 [Indole-3-carbinol] + O=S(=O)(c1ccccc1)N(CC(F)(F)F)c1ccc(C(O)(C(F)(F)F)C(F)(F)F)cc1 [T0901317] (first compound 0.8 µM, partner dose 1.4 µM)",41.3%,97.8%,92%,152%,108%,147%
"Cc1nc(Nc2ncc(C(=O)Nc3c(C)cccc3Cl)s2)cc(N2CCN(CCO)CC2)n1 [dasatanib] + CN(C)S(=O)(=O)c1ccc2c(c1)/C(=C/c1cc3c([nH]1)CCCC3)C(=O)N2 [SU6656] (first compound 0.004 µM, partner dose 0.4 µM)",247%,134%,148%,54.3%,101%,80.5%
"C[C@@H]1CCN(C(=O)CC#N)C[C@@H]1N(C)c1ncnc2[nH]ccc12 + O=C(O)C(=O)Nc1sc2c(c1C(=O)O)CCNC2 [TCS401] (first compound 1 µM, partner dose 1.66667 µM)",73.5%,89.9%,102%,59.2%,75.7%,57.8%
"Clc1ccc(Nc2nnc(Cc3ccncc3)c3ccccc23)cc1 [vatalanib] + O=C(Nc1ccccc1)c1cc([N+](=O)[O-])ccc1Cl [GW9662] (first compound 2 µM, partner dose 2 µM)",97.8%,232%,121%,79.1%,67.6%,251%
"COCC[n+]1c2c(n(Cc3cnccn3)c1C)C(=O)c1ccccc1C2=O + COc1ccc(-c2ccc3c(N4CCOCC4)nc(N4C[C@@H](C)O[C@@H](C)C4)nc3n2)cc1CO [KU0063794] (first compound 0.0004 µM, partner dose 0.02 µM)",40.1%,72.2%,112%,190%,72.3%,84%
"CC(=O)c1c(C)c2cnc(Nc3ccc(N4CCNCC4)cn3)nc2n(C2CCCC2)c1=O [palbociclib] + O=c1cc(-c2cccc3c2Sc2ccccc2S3)oc(N2CCOCC2)c1 [KU55933] (first compound 0.04 µM, partner dose 1 µM)",81.9%,44.5%,113%,196%,135%,204%
"Clc1ccc(Nc2nnc(Cc3ccncc3)c3ccccc23)cc1 [vatalanib] + Cn1c(Nc2ccc(C(F)(F)F)cc2)nc2cc(Oc3ccnc(-c4ncc(C(F)(F)F)[nH]4)c3)ccc21 [CHIR265] (first compound 2 µM, partner dose 0.08 µM)",738%,86.1%,134%,80.6%,122%,106%
"CO[C@@H]1[C@H](N(C)C(=O)c2ccccc2)C[C@H]2O[C@]1(C)n1c3ccccc3c3c4c(c5c6ccccc6n2c5c31)C(=O)NC4 [Midostaurin] + COc1cc(N2CCC(N3CCN(C)CC3)CC2)ccc1Nc1ncc(Cl)c(Nc2ccccc2S(=O)(=O)C(C)C)n1 [NVP-TAE684] (first compound 0.08 µM, partner dose 0.08 µM)",209%,60.7%,138%,72.8%,215%,31.5%
"C#Cc1cccc(Nc2ncnc3cc(OCCOC)c(OCCOC)cc23)c1 [erlotinib] + Cc1nc(Nc2ncc(C(=O)Nc3c(C)cccc3Cl)s2)cc(N2CCN(CCO)CC2)n1 [dasatanib] (first compound 0.8 µM, partner dose 0.004 µM)",271%,39.8%,132%,62.8%,92.3%,264%
"COc1cc(Nc2ncc(F)c(Nc3ccc4c(n3)NC(=O)C(C)(C)O4)n2)cc(OC)c1OC [Tamatinib] + CCN(CC)CCCCNc1ncc2cc(-c3cc(OC)cc(OC)c3)c(NC(=O)NC(C)(C)C)nc2n1 [PD173074] (first compound 0.4 µM, partner dose 0.1 µM)",142%,85.5%,154%,42.6%,106%,99.7%
"CC(=O)c1c(C)c2cnc(Nc3ccc(N4CCNCC4)cn3)nc2n(C2CCCC2)c1=O [palbociclib] + Cc1cc(N2CCOCC2)cc2[nH]c(-c3c(NC[C@@H](O)c4cccc(Cl)c4)cc[nH]c3=O)nc12 [BMS536924] (first compound 0.04 µM, partner dose 0.2 µM)",122%,66%,159%,98.3%,153%,72.6%
"COc1cc(Nc2ncc(F)c(Nc3ccc4c(n3)NC(=O)C(C)(C)O4)n2)cc(OC)c1OC [Tamatinib] + COc1cc2ncnc(Nc3ccc(Oc4ccccc4)cc3)c2cc1OC [SrcI1] (first compound 0.4 µM, partner dose 2 µM)",160%,77.8%,163%,243%,88.3%,30.9%
"C=CCn1c(=O)c2cnc(Nc3ccc(N4CCN(C)CC4)cc3)nc2n1-c1cccc(C(C)(C)O)n1 + COc1cc2c(Oc3ccc4[nH]c(C)cc4c3F)ncnc2cc1OCCCN1CCCC1 [cediranib] (first compound 0.02 µM, partner dose 0.4 µM)",122%,178%,122%,117%,126%,180%
"Cc1ccc(NC(=O)c2cccc(N(C)C)c2)cc1NC(=O)c1ccc(O)cc1 + COc1cc(N2CCC(N3CCN(C)CC3)CC2)ccc1Nc1ncc(Cl)c(Nc2ccccc2S(=O)(=O)C(C)C)n1 [NVP-TAE684] (first compound 2 µM, partner dose 0.08 µM)",281%,47%,111%,58.6%,185%,298%
"COCC[n+]1c2c(n(Cc3cnccn3)c1C)C(=O)c1ccccc1C2=O + O=C(Nc1cccc(Cl)c1)Nc1ncc(CCNc2ncnc3ccsc23)s1 [SNS314] (first compound 0.0004 µM, partner dose 0.0008 µM)",58.9%,43%,82.6%,56.8%,93.8%,179%
"O=C(CCCCCCC(=O)Nc1ccccc1)NO [vorinostat] + Cc1cc(N2CCOCC2)cc2[nH]c(-c3c(NC[C@@H](O)c4cccc(Cl)c4)cc[nH]c3=O)nc12 [BMS536924] (first compound 0.08 µM, partner dose 0.2 µM)",45.5%,66.8%,123%,60.4%,123%,37.8%
"OCc1c[nH]c2ccccc12 [Indole-3-carbinol] + O=C(Nc1ccccc1)c1cc([N+](=O)[O-])ccc1Cl [GW9662] (first compound 0.8 µM, partner dose 2 µM)",110%,92.7%,203%,61.7%,129%,99.5%
"Cc1ccc(NC(=O)c2cccc(N(C)C)c2)cc1NC(=O)c1ccc(O)cc1 + O=C(O)c1ccc(-c2c[nH]c3ncc(-c4ccccc4)cc23)cc1C1CCCC1 [GSK650394] (first compound 2 µM, partner dose 0.16 µM)",237%,102%,93.7%,60.2%,109%,77%
"Clc1ccc(Nc2nnc(Cc3ccncc3)c3ccccc23)cc1 [vatalanib] + NCC(=O)Nc1ccc(-n2nc(C(F)(F)F)cc2-c2ccc3c(ccc4ccccc43)c2)cc1 [OSU03012] (first compound 2 µM, partner dose 1 µM)",153%,175%,96.8%,106%,84.1%,175%
"COc1cc(Nc2ncc(F)c(Nc3ccc4c(n3)NC(=O)C(C)(C)O4)n2)cc(OC)c1OC [Tamatinib] + CCCCCCCCCCCC1=C(O)C(=O)C=C(O)C1=O [Embelin] (first compound 0.4 µM, partner dose 1.2 µM)",77.4%,95.2%,127%,56.5%,86%,57%
"Cc1cc(N2CCOCC2)cc2[nH]c(-c3c(NC[C@@H](O)c4cccc(Cl)c4)cc[nH]c3=O)nc12 + COc1cc(N2CCC(N3CCN(C)CC3)CC2)ccc1Nc1ncc(Cl)c(Nc2ccccc2S(=O)(=O)C(C)C)n1 [NVP-TAE684] (first compound 0.2 µM, partner dose 0.08 µM)",93.7%,47%,286%,79.7%,86.8%,91.2%
"COCC[n+]1c2c(n(Cc3cnccn3)c1C)C(=O)c1ccccc1C2=O + CCN(CC)CCCCNc1ncc2cc(-c3cc(OC)cc(OC)c3)c(NC(=O)NC(C)(C)C)nc2n1 [PD173074] (first compound 0.0004 µM, partner dose 0.1 µM)",36.6%,101%,109%,60.4%,93.2%,38.5%
"Cn1nnc2c(C(N)=O)ncn2c1=O [temozolomide] + c1cc(-c2cnn3cc(-c4ccc(OCCN5CCCCC5)cc4)cnc23)ccn1 [Dorsomorphin] (first compound 2 µM, partner dose 0.4 µM)",64.3%,117%,104%,227%,86.5%,29.4%
"NC(=O)Nc1cc(-c2cccc(F)c2)sc1C(=O)N[C@H]1CCCNC1 + COc1ccc2c(c1)CCC1C2CCC2(C)C(NCCCCCCN3C(=O)C=CC3=O)CCC12 [U73122] (first compound 0.02 µM, partner dose 0.4 µM)",143%,91.8%,98.1%,64.3%,107%,82.5%
"OCCn1cc(-c2cnc3nnn(Cc4ccc5ncccc5c4)c3n2)cn1 + CCCCCCCCCCCC1=C(O)C(=O)C=C(O)C1=O [Embelin] (first compound 1 µM, partner dose 1.2 µM)",147%,110%,97.3%,40.7%,68.7%,284%

# Some of the entries above in a different format:
SMILES	cleaved PARP positive nuclei fraction [1]	cleaved PARP positive nuclei fraction [2]	cleaved PARP positive nuclei fraction [3]	cleaved PARP positive nuclei fraction [4]	cleaved PARP positive nuclei fraction [5]	cleaved PARP positive nuclei fraction [6]
CO[C@@H]1[C@H](N(C)C(=O)c2ccccc2)C[C@H]2O[C@]1(C)n1c3ccccc3c3c4c(c5c6ccccc6n2c5c31)C(=O)NC4 [Midostaurin] + COc1cc(N2CCC(N3CCN(C)CC3)CC2)ccc1Nc1ncc(Cl)c(Nc2ccccc2S(=O)(=O)C(C)C)n1 [NVP-TAE684] (first compound 0.08 µM, partner dose 0.08 µM)	209%	60.7%	138%	72.8%	215%	31.5%
Cn1nnc2c(C(N)=O)ncn2c1=O [temozolomide] + c1cc(-c2cnn3cc(-c4ccc(OCCN5CCCCC5)cc4)cnc23)ccn1 [Dorsomorphin] (first compound 2 µM, partner dose 0.4 µM)	64.3%	117%	104%	227%	86.5%	29.4%
